PMC11045720
Results are given in words; binding and its absence hold for the method and conditions named.

Amino acid sequences for entries named in this document (tags omitted). Residues count along the entry.
UniProt P00366, residues 58-558: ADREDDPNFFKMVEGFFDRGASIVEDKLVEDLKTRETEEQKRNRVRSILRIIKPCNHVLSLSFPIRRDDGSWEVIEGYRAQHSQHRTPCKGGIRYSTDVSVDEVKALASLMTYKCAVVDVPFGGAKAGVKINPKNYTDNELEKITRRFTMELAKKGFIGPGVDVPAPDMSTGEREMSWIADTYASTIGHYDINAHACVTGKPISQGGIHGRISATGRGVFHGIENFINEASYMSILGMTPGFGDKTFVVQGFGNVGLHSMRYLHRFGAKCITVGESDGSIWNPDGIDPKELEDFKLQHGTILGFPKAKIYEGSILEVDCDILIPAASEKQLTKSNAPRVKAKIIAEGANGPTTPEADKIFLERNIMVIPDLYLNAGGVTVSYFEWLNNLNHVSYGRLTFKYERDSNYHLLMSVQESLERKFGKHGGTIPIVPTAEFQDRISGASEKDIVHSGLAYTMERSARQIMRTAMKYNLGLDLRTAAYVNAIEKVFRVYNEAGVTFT

Molecular target: L-Glutamate dehydrogenase from bovine liver (bovine) (UniProt P00366)
Experiment: mass photometry (denaturing, dMP), no cross-linker; 5 min in 5.4 M urea, then diluted in PBS (up to 10 min) before the measurement; both purified

Substance: L-Glutamate dehydrogenase from bovine liver (from UniProt P00366 58-558) (enzyme)
- binding: no binding (condition: after denaturation in 5.4 M urea)
